# Source: the supplement of paper PMC12819154, “High-throughput peptide-centric local stability assay extends protein–ligand identification to membrane proteins, tissues and bacteria” (Nature Structural & Molecular Biology, 2025)
# Amino acid sequences for entries named in this document (tags omitted). A change or cut given only in a name is not applied to a line headed by its entry.
# UniProt Q9Y2S7: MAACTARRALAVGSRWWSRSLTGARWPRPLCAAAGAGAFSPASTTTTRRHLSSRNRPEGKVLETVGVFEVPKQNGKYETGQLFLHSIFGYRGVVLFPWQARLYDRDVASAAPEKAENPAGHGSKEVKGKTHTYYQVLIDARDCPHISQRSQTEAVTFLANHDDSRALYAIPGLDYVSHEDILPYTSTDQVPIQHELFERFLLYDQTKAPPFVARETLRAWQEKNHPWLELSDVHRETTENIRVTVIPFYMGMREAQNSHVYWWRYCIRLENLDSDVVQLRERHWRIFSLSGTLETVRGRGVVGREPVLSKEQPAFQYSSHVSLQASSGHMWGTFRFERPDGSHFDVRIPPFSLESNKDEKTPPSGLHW
# UniProt Q9Y5L4: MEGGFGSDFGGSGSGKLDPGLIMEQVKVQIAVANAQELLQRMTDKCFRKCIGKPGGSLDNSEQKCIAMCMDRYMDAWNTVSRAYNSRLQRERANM
# UniProt Q9Y5V3: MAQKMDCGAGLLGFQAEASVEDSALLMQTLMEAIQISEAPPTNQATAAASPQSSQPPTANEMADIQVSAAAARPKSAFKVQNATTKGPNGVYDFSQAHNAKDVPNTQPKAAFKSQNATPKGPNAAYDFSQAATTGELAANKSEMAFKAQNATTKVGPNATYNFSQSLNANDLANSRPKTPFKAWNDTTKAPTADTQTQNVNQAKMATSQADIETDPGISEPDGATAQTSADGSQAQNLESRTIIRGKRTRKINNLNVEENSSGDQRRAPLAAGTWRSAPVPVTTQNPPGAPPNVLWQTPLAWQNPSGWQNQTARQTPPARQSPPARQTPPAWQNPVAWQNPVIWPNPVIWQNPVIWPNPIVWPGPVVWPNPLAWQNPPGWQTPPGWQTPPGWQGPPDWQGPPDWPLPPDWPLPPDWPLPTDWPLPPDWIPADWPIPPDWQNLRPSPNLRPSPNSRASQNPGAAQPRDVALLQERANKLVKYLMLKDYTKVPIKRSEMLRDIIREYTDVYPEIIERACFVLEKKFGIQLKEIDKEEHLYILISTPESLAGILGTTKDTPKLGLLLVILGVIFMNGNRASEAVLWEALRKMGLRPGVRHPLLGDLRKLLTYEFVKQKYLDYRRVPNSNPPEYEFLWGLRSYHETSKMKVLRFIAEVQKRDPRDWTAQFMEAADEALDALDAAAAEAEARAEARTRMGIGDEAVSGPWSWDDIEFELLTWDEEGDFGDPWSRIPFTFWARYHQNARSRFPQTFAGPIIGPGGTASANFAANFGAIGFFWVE
# UniProt Q9Y2X3: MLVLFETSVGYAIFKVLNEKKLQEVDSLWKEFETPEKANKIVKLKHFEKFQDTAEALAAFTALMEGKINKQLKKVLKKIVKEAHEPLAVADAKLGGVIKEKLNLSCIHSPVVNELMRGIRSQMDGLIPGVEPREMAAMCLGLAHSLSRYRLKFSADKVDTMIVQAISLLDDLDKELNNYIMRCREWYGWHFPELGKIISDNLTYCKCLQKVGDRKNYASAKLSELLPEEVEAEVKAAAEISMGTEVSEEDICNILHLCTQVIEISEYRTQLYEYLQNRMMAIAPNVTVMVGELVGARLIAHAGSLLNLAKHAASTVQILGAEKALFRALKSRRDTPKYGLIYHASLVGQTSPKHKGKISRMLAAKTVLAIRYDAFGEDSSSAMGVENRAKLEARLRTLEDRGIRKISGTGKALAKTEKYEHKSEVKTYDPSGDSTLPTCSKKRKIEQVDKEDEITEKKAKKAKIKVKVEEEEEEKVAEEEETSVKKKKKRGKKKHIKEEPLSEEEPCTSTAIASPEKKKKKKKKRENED
# UniProt Q9Y5S2: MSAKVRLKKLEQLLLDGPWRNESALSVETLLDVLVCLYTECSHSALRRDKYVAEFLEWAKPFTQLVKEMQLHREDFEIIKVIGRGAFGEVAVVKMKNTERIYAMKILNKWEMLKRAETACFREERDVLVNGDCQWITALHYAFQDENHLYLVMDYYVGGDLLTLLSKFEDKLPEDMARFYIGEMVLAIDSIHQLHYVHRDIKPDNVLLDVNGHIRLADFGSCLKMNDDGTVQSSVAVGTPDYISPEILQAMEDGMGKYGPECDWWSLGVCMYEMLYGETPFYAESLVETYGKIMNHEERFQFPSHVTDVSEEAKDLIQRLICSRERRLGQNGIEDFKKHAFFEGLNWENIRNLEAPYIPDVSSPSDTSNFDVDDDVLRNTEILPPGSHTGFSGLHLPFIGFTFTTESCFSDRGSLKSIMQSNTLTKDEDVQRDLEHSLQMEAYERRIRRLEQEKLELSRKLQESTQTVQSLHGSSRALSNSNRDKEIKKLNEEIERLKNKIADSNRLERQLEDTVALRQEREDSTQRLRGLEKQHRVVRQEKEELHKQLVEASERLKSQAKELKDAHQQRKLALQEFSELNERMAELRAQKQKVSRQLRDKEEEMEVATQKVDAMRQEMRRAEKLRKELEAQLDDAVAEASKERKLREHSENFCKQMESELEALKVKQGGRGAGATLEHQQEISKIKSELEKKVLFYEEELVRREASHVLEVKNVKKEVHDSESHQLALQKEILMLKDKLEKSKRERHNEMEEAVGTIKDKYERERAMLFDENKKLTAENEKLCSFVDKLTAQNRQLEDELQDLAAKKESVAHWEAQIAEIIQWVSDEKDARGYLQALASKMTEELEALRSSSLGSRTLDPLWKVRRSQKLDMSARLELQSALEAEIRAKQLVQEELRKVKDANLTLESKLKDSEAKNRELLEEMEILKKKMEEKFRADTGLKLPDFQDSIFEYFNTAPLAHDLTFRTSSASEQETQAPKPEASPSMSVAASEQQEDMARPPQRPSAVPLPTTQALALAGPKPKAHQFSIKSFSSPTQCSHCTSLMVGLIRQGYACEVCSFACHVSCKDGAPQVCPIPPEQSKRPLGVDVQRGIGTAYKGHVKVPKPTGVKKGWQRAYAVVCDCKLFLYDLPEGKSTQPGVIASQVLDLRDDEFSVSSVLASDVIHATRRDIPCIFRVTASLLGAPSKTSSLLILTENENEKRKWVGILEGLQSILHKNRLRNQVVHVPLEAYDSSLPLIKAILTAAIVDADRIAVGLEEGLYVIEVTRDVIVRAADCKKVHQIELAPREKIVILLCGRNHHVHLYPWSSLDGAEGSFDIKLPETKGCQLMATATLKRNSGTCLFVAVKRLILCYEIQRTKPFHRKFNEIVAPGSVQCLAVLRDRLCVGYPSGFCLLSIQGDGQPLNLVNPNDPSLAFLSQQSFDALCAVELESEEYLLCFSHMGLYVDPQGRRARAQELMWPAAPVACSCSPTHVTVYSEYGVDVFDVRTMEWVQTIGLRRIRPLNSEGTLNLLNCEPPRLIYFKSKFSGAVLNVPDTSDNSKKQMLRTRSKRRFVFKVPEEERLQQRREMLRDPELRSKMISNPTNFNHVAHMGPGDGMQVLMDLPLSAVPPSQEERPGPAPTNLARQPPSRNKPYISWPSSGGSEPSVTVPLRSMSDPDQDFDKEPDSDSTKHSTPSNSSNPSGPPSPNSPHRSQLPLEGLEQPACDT
# UniProt Q9Y5K8, whole entry: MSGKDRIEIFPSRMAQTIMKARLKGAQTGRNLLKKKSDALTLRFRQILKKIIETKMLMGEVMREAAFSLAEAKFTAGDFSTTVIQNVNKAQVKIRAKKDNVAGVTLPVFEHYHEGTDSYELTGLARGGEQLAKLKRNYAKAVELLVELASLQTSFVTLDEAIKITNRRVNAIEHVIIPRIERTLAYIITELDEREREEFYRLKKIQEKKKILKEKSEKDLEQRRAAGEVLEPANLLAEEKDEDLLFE
# UniProt Q9Y5L0: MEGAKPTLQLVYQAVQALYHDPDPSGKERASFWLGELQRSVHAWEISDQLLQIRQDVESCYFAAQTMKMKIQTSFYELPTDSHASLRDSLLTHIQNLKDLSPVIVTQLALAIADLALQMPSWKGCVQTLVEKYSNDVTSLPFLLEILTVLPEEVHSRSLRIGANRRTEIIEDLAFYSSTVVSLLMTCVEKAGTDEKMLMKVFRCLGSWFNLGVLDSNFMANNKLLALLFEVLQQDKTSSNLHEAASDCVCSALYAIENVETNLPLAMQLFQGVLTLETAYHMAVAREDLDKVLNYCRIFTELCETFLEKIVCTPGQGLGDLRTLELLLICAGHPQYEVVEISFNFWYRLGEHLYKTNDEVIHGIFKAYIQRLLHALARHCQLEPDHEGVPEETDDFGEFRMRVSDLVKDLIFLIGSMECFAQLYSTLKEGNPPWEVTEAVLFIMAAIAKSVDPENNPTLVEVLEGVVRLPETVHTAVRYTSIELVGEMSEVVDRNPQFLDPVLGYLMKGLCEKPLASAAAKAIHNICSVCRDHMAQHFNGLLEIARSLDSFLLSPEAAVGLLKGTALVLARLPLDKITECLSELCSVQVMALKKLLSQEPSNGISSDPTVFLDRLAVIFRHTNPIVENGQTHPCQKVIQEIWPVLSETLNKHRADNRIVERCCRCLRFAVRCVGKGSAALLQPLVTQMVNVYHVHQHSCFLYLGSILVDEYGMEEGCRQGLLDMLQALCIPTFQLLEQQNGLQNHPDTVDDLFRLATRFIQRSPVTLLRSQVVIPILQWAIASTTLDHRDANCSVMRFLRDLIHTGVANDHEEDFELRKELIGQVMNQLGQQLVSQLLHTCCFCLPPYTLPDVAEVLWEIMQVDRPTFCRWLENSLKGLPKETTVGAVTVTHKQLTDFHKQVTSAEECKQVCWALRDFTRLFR
# UniProt Q9Y2S6, whole entry: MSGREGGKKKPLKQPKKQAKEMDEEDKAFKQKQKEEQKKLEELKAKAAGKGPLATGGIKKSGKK
# UniProt Q9Y2P8: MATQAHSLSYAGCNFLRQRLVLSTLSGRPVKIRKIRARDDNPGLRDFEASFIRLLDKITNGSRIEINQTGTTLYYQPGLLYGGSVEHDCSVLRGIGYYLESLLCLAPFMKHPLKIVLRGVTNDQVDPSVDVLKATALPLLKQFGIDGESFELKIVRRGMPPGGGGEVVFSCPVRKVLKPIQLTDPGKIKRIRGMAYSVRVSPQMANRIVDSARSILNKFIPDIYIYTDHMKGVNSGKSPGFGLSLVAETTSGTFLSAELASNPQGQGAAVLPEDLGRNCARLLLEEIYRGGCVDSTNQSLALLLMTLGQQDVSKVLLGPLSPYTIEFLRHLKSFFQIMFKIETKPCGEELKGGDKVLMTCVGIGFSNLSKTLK
# This is one part of the list. Small differences around the control level are noise.
# Compound: Cc1nc(Nc2ncc(C(=O)Nc3c(C)cccc3Cl)s2)cc(N2CCN(CCO)CC2)n1 [dasatinib]
# Assay: log2 fold change of tryptic peptide abundance, ligand vs vehicle (limited proteolysis) (log2 ratio); higher = more trypsin-susceptible (destabilized)
# Conditions: ligand concentration: 5 uM; sample: K562 cleared lysate
row,Target,log2 fold change
1,"POLDIP2 (peptide sequence: IPPFSLESNKDEK, peptide start residue: 348) (UniProt Q9Y2S7)",-0.404
2,"TIMM13 (peptide sequence: CIGKPGGSLDNSEQK, peptide start residue: 50) (UniProt Q9Y5L4)",-0.225
3,"MAGED1 (peptide sequence: GPNGVYDFSQAHNAK, peptide start residue: 87) (UniProt Q9Y5V3)",-0.157
4,"NOP58 (peptide sequence: IVKEAHEPLAVADAK, peptide start residue: 79) (UniProt Q9Y2X3)",0.892
5,"UniProt Q9Y5S2 (peptide sequence: KVLFYEEELVRR, peptide start residue: 693)",0.166
6,"ATP6V1D (peptide sequence: SGKDRIEIFPSR, peptide start residue: 2) (UniProt Q9Y5K8)",0.273
7,"TNPO3 (peptide sequence: DHMAQHFNGLLEIAR, peptide start residue: 532) (UniProt Q9Y5L0)",-0.526
8,"UniProt Q9Y2S6 (peptide sequence: AAGKGPLATGGIKK, peptide start residue: 47)",-0.313
9,"RCL1 (peptide sequence: FIPDIYIYTDHMK, peptide start residue: 219) (UniProt Q9Y2P8)",-0.162
